# In the supplement of paper PMC7238544:
# Where a name gives a salt, the structure may show the parent alone. ± gives the standard deviation of the averaged measurements. The list shows a part of the results. The data scatter; read single values as rough.
# How the values were obtained:
# hAMSC donor 1 [1] = assay: Hoechst total cell count ratio vs vehicle control; higher = more cells (less toxicity)
# hAMSC donor 2 [2] = assay: as above
# hAMSC donor 1 [3] = assay: transgenic luciferase activity (RLU/mg protein) fold change vs vehicle control (ratio); higher = more transgene expression
# hAMSC donor 2 [4] = assay: as above
# hAMSC donor 1 [5] = assay: transfection efficiency (EGFP+ cells / Hoechst count) fold change vs vehicle control (ratio); hAMSC are human adipose-derived mesenchymal stem cells given an EGFP-luciferase plasmid by lipofection; higher = enhanced transfection
# hAMSC donor 2 [6] = assay: as above
# [7] = priming compound concentration 0.2 µM
# [8] = priming compound concentration 1.7 µM
# [9] = priming compound concentration 13 µM
SMILES,Hoechst total cell count ratio (hAMSC donor 1 [1]; [7]),Hoechst total cell count ratio (hAMSC donor 1 [1]; [8]),Hoechst total cell count ratio (hAMSC donor 1 [1]; [9]),Hoechst total cell count ratio (hAMSC donor 2 [2]; [7]),Hoechst total cell count ratio (hAMSC donor 2 [2]; [8]),Hoechst total cell count ratio (hAMSC donor 2 [2]; [9]),transgenic luciferase activity (hAMSC donor 1 [3]; [7]),transgenic luciferase activity (hAMSC donor 1 [3]; [8]),transgenic luciferase activity (hAMSC donor 1 [3]; [9]),transgenic luciferase activity (hAMSC donor 2 [4]; [7]),transgenic luciferase activity (hAMSC donor 2 [4]; [8]),transgenic luciferase activity (hAMSC donor 2 [4]; [9]),transfection efficiency (hAMSC donor 1 [5]; [7]),transfection efficiency (hAMSC donor 1 [5]; [8]),transfection efficiency (hAMSC donor 1 [5]; [9]),transfection efficiency (hAMSC donor 2 [6]; [7]),transfection efficiency (hAMSC donor 2 [6]; [8]),transfection efficiency (hAMSC donor 2 [6]; [9])
CC(C)(C)C(O)/C=C/c1ccc2c(c1)OCO2 (centres undefined) [Stiripentol],1.17 ± 0.022,1.32 ± 0.16,1.17 ± 0.028,1.27 ± 0.18,0.837 ± 0.12,1.27 ± 0.16,1.17 ± 0.58,1.11 ± 0.34,0.951 ± 0.33,0.675 ± 0.19,0.902 ± 0.21,0.874 ± 0.071,1.36 ± 0.42,1.03 ± 0.27,1.27 ± 0.38,0.943 ± 0.11,1.21 ± 0.16,1.11 ± 0.28
Cc1cccc(C)c1OCC(C)N (centres undefined) [Mexiletine hydrochloride],1.04 ± 0.017,0.964 ± 0.054,0.984 ± 0.084,0.929 ± 0.12,0.925 ± 0.12,1.33 ± 0.33,0.581 ± 0.15,1.2 ± 0.42,1.31 ± 0.53,0.562 ± 0.18,1.17 ± 0.12,0.68 ± 0.4,1.1 ± 0.28,1.87 ± 0.06,1.31 ± 0.61,1.11 ± 0.15,1.26 ± 0.3,1.14 ± 0.18
C/C(=C\C(=O)OCCCCCCCCC(=O)O)C[C@@H]1OC[C@H](C[C@@H]2O[C@H]2[C@@H](C)[C@H](C)O)[C@@H](O)[C@H]1O [Mupirocin],1.17 ± 0.091,1.17 ± 0.038,1.17 ± 0.062,0.858 ± 0.25,0.948 ± 0.16,1.19 ± 0.36,0.944 ± 0.45,0.469 ± 0.12,0.803 ± 0.26,1.33 ± 0.61,1.04 ± 0.37,1.86 ± 0.15,1.35 ± 0.28,1.19 ± 0.48,2.29 ± 0.89,1.43 ± 0.43,1.29 ± 0.28,1.27 ± 0.48
CCC(=O)O[C@]1(C(=O)SCF)[C@H](C)C[C@H]2[C@@H]3C[C@H](F)C4=CC(=O)C=C[C@]4(C)[C@@]3(F)[C@@H](O)C[C@@]21C [Fluticasone propionate],1.23 ± 0.11,1.22 ± 0.067,1.03 ± 0.097,1.86 ± 0.1,0.901 ± 0.023,0.783 ± 0.05,12.3 ± 4.7,8.39 ± 1.6,4.38 ± 0.78,4.49 ± 1.2,3.47 ± 0.12,4.63 ± 0.49,2.66 ± 0.67,1.7 ± 0.32,1.99 ± 0.52,1.51 ± 0.17,2.59 ± 0.26,2.27 ± 0.35
COc1ccccc1OCCNCC(O)COc1cccc2[nH]c3ccccc3c12 (centres undefined) [Carvedilol],1.18 ± 0.056,1.29 ± 0.19,1.23 ± 0.058,0.915 ± 0.31,0.847 ± 0.088,1.36 ± 0.049,1.21 ± 0.73,0.828 ± 0.19,1.27 ± 0.46,0.777 ± 0.35,1.14 ± 0.3,2.32 ± 0.63,1.05 ± 0.34,1.32 ± 0.48,0.99 ± 0.45,1.43 ± 0.32,1.26 ± 0.14,1.04 ± 0.041
CC(=O)OCC(=O)[C@@]12OC3(CCCC3)O[C@@H]1C[C@H]1[C@@H]3CCC4=CC(=O)C=C[C@]4(C)[C@@]3(F)[C@@H](O)C[C@@]12C [Amcinonide],1.25 ± 0.055,1.25 ± 0.13,1.02 ± 0.075,1.61 ± 0.018,1.16 ± 0.091,1.63 ± 0.073,3.13 ± 0.77,6.24 ± 1.3,8.12 ± 2.5,1.14 ± 0.32,4.5 ± 0.34,4.3 ± 0.64,1.79 ± 0.41,2.48 ± 1.6,2.27 ± 0.62,1.12 ± 0.038,1.8 ± 0.1,1.62 ± 0.11
COc1cccc2c1C(=O)c1c(O)c3c(c(O)c1C2=O)C[C@@](O)(C(=O)CO)C[C@@H]3O[C@H]1C[C@H](N)[C@@H](O)[C@H](C)O1 [Epirubicin hydrochloride],0.674 ± 0.047,0.21 ± 0.042,0.107 ± 0.016,0.562 ± 0.058,0.139 ± 0.057,0.079 ± 0.011,1.38 ± 0.48,1.01 ± 0.58,0.25 ± 0.23,1.28 ± 0.3,1.98 ± 1.3,0.00034 ± 0.00038,1.69 ± 0.41,3 ± 0.55,0.257 ± 0.22,1.49 ± 0.25,2.69 ± 0.1,0.245 ± 0.11
CC(Oc1c(Cl)cccc1Cl)C1=NCCN1 (centres undefined) [Lofexidine hydrochloride],1.23 ± 0.046,1.16 ± 0.26,1.16 ± 0.075,0.909 ± 0.16,0.913 ± 0.095,1.71 ± 0.082,0.726 ± 0.36,0.626 ± 0.15,1.23 ± 0.27,0.867 ± 0.35,0.991 ± 0.47,0.964 ± 0.11,1.55 ± 0.67,1.39 ± 0.56,0.866 ± 0.3,1.39 ± 0.34,1.29 ± 0.12,0.854 ± 0.015
CC(C)(O)c1ccccc1CC[C@@H](SCC1(CC(=O)O)CC1)c1cccc(/C=C/c2ccc3ccc(Cl)cc3n2)c1 [Montelukast sodium],1.26 ± 0.086,1.28 ± 0.065,1.14 ± 0.027,1.32 ± 0.19,1.22 ± 0.03,1.5 ± 0.27,0.881 ± 0.13,0.673 ± 0.17,1.07 ± 0.15,0.755 ± 0.34,0.923 ± 0.14,1.37 ± 0.22,1.01 ± 0.23,1.68 ± 0.73,0.791 ± 0.3,0.855 ± 0.16,1 ± 0.071,1.05 ± 0.28
Cc1ccc(NC(=O)c2ccc(CN3CCN(C)CC3)cc2)cc1Nc1nccc(-c2cccnc2)n1 [Imatinib mesylate],0.874 ± 0.31,0.919 ± 0.043,0.903 ± 0.068,1.16 ± 0.25,0.937 ± 0.049,0.756 ± 0.055,0.838 ± 0.4,1.18 ± 1.1,0.313 ± 0.1,0.732 ± 0.12,0.353 ± 0.042,0.632 ± 0.054,1.42 ± 0.56,0.936 ± 0.31,0.556 ± 0.12,0.93 ± 0.2,0.923 ± 0.1,0.827 ± 0.083
CCOc1ccc2ccccc2c1C(=O)N[C@@H]1C(=O)N2[C@@H]1SC(C)(C)[C@@H]2C(=O)O [Nafcillin sodium],1.17 ± 0.016,1.27 ± 0.061,1.2 ± 0.092,1.22 ± 0.12,1.35 ± 0.14,1.22 ± 0.11,0.866 ± 0.024,0.756 ± 0.31,1.15 ± 0.095,0.829 ± 0.24,0.858 ± 0.017,1.24 ± 0.23,0.953 ± 0.47,0.883 ± 0.42,1.43 ± 0.42,0.868 ± 0.099,0.886 ± 0.14,1.03 ± 0.1
CN1CCC(=C2c3ccccc3CCc3sccc32)CC1 [Pizotyline maleate],0.934 ± 0.13,1.24 ± 0.16,1.23 ± 0.15,1.48 ± 0.3,1.187 ± 0.0048,1.2 ± 0.021,0.943 ± 0.41,0.765 ± 0.1,0.153 ± 0.044,0.693 ± 0.18,0.748 ± 0.022,0.457 ± 0.31,1.26 ± 0.22,1.07 ± 0.083,0.778 ± 0.16,0.828 ± 0.16,0.832 ± 0.04,0.786 ± 0.088
CN1CCN(CCCN2c3ccccc3Sc3ccc(C(F)(F)F)cc32)CC1 [Trifluoperazine hydrochloride],1.09 ± 0.19,1.34 ± 0.051,1.29 ± 0.089,1.3 ± 0.27,0.95 ± 0.031,1.05 ± 0.088,0.747 ± 0.36,0.709 ± 0.17,0.242 ± 0.11,0.785 ± 0.037,0.341 ± 0.071,0.528 ± 0.2,1.1 ± 0.55,0.945 ± 0.26,0.949 ± 0.41,0.882 ± 0.1,0.952 ± 0.17,0.749 ± 0.019

# Reprinted from the entries so far (two entries):
SMILES,Hoechst total cell count ratio (hAMSC donor 1 [1]; [7]),Hoechst total cell count ratio (hAMSC donor 1 [1]; [8]),Hoechst total cell count ratio (hAMSC donor 1 [1]; [9]),Hoechst total cell count ratio (hAMSC donor 2 [2]; [7]),Hoechst total cell count ratio (hAMSC donor 2 [2]; [8]),Hoechst total cell count ratio (hAMSC donor 2 [2]; [9]),transgenic luciferase activity (hAMSC donor 1 [3]; [7]),transgenic luciferase activity (hAMSC donor 1 [3]; [8]),transgenic luciferase activity (hAMSC donor 1 [3]; [9]),transgenic luciferase activity (hAMSC donor 2 [4]; [7]),transgenic luciferase activity (hAMSC donor 2 [4]; [8]),transgenic luciferase activity (hAMSC donor 2 [4]; [9]),transfection efficiency (hAMSC donor 1 [5]; [7]),transfection efficiency (hAMSC donor 1 [5]; [8]),transfection efficiency (hAMSC donor 1 [5]; [9]),transfection efficiency (hAMSC donor 2 [6]; [7]),transfection efficiency (hAMSC donor 2 [6]; [8]),transfection efficiency (hAMSC donor 2 [6]; [9])
CCC(=O)O[C@]1(C(=O)SCF)[C@H](C)C[C@H]2[C@@H]3C[C@H](F)C4=CC(=O)C=C[C@]4(C)[C@@]3(F)[C@@H](O)C[C@@]21C [Fluticasone propionate],1.23 ± 0.11,1.22 ± 0.067,1.03 ± 0.097,1.86 ± 0.1,0.901 ± 0.023,0.783 ± 0.05,12.3 ± 4.7,8.39 ± 1.6,4.38 ± 0.78,4.49 ± 1.2,3.47 ± 0.12,4.63 ± 0.49,2.66 ± 0.67,1.7 ± 0.32,1.99 ± 0.52,1.51 ± 0.17,2.59 ± 0.26,2.27 ± 0.35
COc1ccccc1OCCNCC(O)COc1cccc2[nH]c3ccccc3c12 (centres undefined) [Carvedilol],1.18 ± 0.056,1.29 ± 0.19,1.23 ± 0.058,0.915 ± 0.31,0.847 ± 0.088,1.36 ± 0.049,1.21 ± 0.73,0.828 ± 0.19,1.27 ± 0.46,0.777 ± 0.35,1.14 ± 0.3,2.32 ± 0.63,1.05 ± 0.34,1.32 ± 0.48,0.99 ± 0.45,1.43 ± 0.32,1.26 ± 0.14,1.04 ± 0.041
